According to PubChem BioAssay AID1487 (National Center for Advancing Translational Sciences (NCATS), 2009):
The list shows a part of the results. These are further read-outs of the screen, such as a control signal, another cell line or another target. No call is given for them. Most of these compounds were active or inconclusive in the main read-out, so they are no random draw. Words in brackets tell the shape of the fitted curve; partial curves, single points and poor fits give uncertain potencies.

Assay: qHTS Assay for Modulators of Lamin A Splicing
Details: HeLa LMNA splicing GFP/RFP minigene ratio, 48 h
How it was run: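 Read-out is the ratio of GFP to DsRed2 object intensity, acquired by 488 nm laser-scanning cytometry on HeLa lamin A-EGFP minigene reporter cells. Compound incubation 48 hrs at 37 °C in Opti-MEM with 2% FBS; DMSO 0.5% final.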

[1] = measured here: RFP viability control channel
[2] = measured here: GFP splicing reporter channel

Compound | AC50 [1] | AC50 [2]
COc1ccc(/C(C)=N/OCC(=O)Nc2nc3ccccc3s2)cc1OC | 35.5 µM [rising, single point] | 
N#Cc1cc(S(=O)(=O)c2ccccc2)c(N)[nH]c1=O | 20 µM [rising, single point] | 
COc1ccccc1N1CCN(C(=O)Cn2c(=O)nc(-c3ccccc3)c3cc(Cl)ccc32)CC1 | 0.447 µM [falling, full curve] | 
CCOc1ccc(C(=O)Nc2ccc3nc(SCc4ccccc4)sc3c2)cc1 | 14.1 µM [falling, partial curve, poor fit] | 
COc1ccccc1/C=C/C(=O)c1ccccc1 | 4.47 µM [falling, single point] | 
CC1CC1c1ccc(/C=C(\C#N)C(=O)Nc2ccc(Cl)cc2)o1 (stereo unspecified) | 17.8 µM [rising, single point] | 
O=C1C2CC=CCC2C(=O)N1Cc1ccccc1Cl (stereo unspecified) |  | 25.1 µM [rising, single point]
O=C(COC(=O)c1ccccc1C(=O)c1ccc(Cl)c([N+](=O)[O-])c1)NC1CCCCCC1 | 35.5 µM [falling, single point] | 35.5 µM [falling, single point]
COc1cc(C)c(NC(=S)Nc2ccc(Cl)c(Cl)c2)cc1OC | 12.6 µM [rising, single point] | 
Cc1cc(C(=O)COc2cccnc2[N+](=O)[O-])c(C)n1Cc1ccco1 | 20 µM [rising, single point] | 11.2 µM [rising, partial curve, poor fit]
CC(=O)c1sc(NC(=O)c2cccnc2Cl)nc1C |  | 0.00501 µM [rising, full curve, poor fit]
CN(C)c1ccc(-c2nc(N(C)C)c3ccccc3n2)cc1 |  | 35.5 µM [falling, single point]
C/C(=N\NC(=O)c1nn(C)cc1Br)c1cccc(NC(=O)c2ccncc2)c1 | 1.78 µM [rising, partial curve] | 1.58 µM [rising, partial curve]
COCCNc1nc(=S)[nH]c2cc(OC)c(OC)cc12 | 15.8 µM [rising, single point] | 
O=C(Nc1ccc2c(c1)OCO2)C1CCN(C(=O)CSc2ncnc3ccccc23)CC1 | 11.2 µM [rising, partial curve] | 15.8 µM [rising, single point]
Cc1ccc(NCCC(=O)c2cccs2)cc1C |  | 8.91 µM [falling, partial curve]
FC(F)Sc1ccc(NC(=S)NC2CCCC2)cc1 | 11.2 µM [falling, partial curve] | 25.1 µM [falling, partial curve]
CCOc1ccccc1NC(=O)CN1C(=O)C2(SCC(=O)N2c2cccc(F)c2)c2ccccc21 (stereo unspecified) | 35.5 µM [rising, partial curve, poor fit] | 

Compound | AC50 [1] | AC50 [2]
O=C(Nc1ccc(F)c(Cl)c1)c1cc(S(=O)(=O)N2CCCc3ccccc32)ccc1F | 1.12 µM [falling, full curve, poor fit] | 0.355 µM [falling, full curve, poor fit]
COc1ccc(C(=O)/C(=C/O)N=Nc2ccc(F)cc2)cc1 | 22.4 µM [falling, partial curve, poor fit] | 15.8 µM [falling, single point]
Cc1cnc(C(=O)Nc2ccc(C)c(S(=O)(=O)N(C)C)c2)cn1 | 3.55 µM [falling, partial curve] | 
CC1CC(C)CN(C(=O)COC(=O)c2cc3ccccc3cc2O)C1 (stereo unspecified) | 14.1 µM [rising, single point] | 15.8 µM [rising, single point]
Cc1ccc(CSc2nc3ccccc3cc2C=O)cc1 | 2 µM [falling, full curve] | 1.58 µM [falling, full curve]
Cn1c(CNc2nc3ccccc3n2C)nc2ccccc21 | 31.6 µM [rising, partial curve, poor fit] | 17.8 µM [rising, partial curve, poor fit]
COCCn1c(=O)c(-c2ccc(Cl)cc2)nc2cnc(N3CCNCC3)nc21 | 14.1 µM [falling, partial curve] | 11.2 µM [falling, single point]
CC1=NN(c2ccccc2)C(=O)C1C(=O)c1ccccc1 (stereo unspecified) | 14.1 µM [rising, single point] | 
Cc1c(OC(=O)CNC(=O)OC(C)(C)C)ccc2c3c(c(=O)oc12)CCC3 | 35.5 µM [rising, single point] | 
COc1ccc(CC(=O)Nc2nc(C)cs2)cc1OC | 12.6 µM [rising, partial curve] | 2.24 µM [rising, full curve, poor fit]
CC1Cc2ccccc2N1C(=O)CO/N=C/c1ccc(OC(F)F)cc1 (stereo unspecified) | 20 µM [rising, single point] | 20 µM [rising, single point]
COc1ccc(/C=C/c2noc(-c3ccccc3O)n2)cc1 | 1.78 µM [falling, single point] | 0.00447 µM [falling, full curve, poor fit]
COc1ccc(CNC(=O)c2ccc3c(c2)nc2n3CCCCC2)c(OC)c1 | 3.55 µM [rising, partial curve] | 1.26 µM [rising, partial curve]
CCOC(=O)C1(S(=O)(=O)c2ccccc2)CCN(Cc2ccc(Cl)cc2)CC1 | 17.8 µM [rising, single point] | 
CN1C(=O)CS(=O)c2ccc(C(=O)NCCC3=CCCCC3)cc21 (stereo unspecified) | 15.8 µM [rising, partial curve, poor fit] | 
O=C(CCn1[nH]c(=O)c2ccccc2c1=O)OC1CCCCC1 | 3.16 µM [rising, partial curve] | 7.94 µM [rising, partial curve, poor fit]
O=C(Nc1ccc2c(c1)OCO2)C1CCN(Cc2cnn(-c3ccccc3)c2-n2cccc2)CC1 | 25.1 µM [rising, single point] | 

In the list so far, these contain an aryl methoxy group.
Compound | AC50 [1] | AC50 [2]
COc1ccc(/C(C)=N/OCC(=O)Nc2nc3ccccc3s2)cc1OC | 35.5 µM [rising, single point] | 
COc1ccccc1N1CCN(C(=O)Cn2c(=O)nc(-c3ccccc3)c3cc(Cl)ccc32)CC1 | 0.447 µM [falling, full curve] | 
COc1ccccc1/C=C/C(=O)c1ccccc1 | 4.47 µM [falling, single point] | 
COc1cc(C)c(NC(=S)Nc2ccc(Cl)c(Cl)c2)cc1OC | 12.6 µM [rising, single point] | 
COCCNc1nc(=S)[nH]c2cc(OC)c(OC)cc12 | 15.8 µM [rising, single point] | 
COc1ccc(C(=O)/C(=C/O)N=Nc2ccc(F)cc2)cc1 | 22.4 µM [falling, partial curve, poor fit] | 15.8 µM [falling, single point]
COc1ccc(CC(=O)Nc2nc(C)cs2)cc1OC | 12.6 µM [rising, partial curve] | 2.24 µM [rising, full curve, poor fit]
COc1ccc(/C=C/c2noc(-c3ccccc3O)n2)cc1 | 1.78 µM [falling, single point] | 0.00447 µM [falling, full curve, poor fit]
COc1ccc(CNC(=O)c2ccc3c(c2)nc2n3CCCCC2)c(OC)c1 | 3.55 µM [rising, partial curve] | 1.26 µM [rising, partial curve]
